{"source": "PubChem BioAssay AID445", "about": "(National Center for Advancing Translational Sciences (NCATS), 2006)", "assay": "IkB Signaling", "details": "ABC-DLBCL IkBa-CBG/CBR dual luciferase ratio (green luciferase fused to IkBa over red control in OCI-Ly3 lymphoma cells), 4 h", "summary_of_the_method": "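In this assay, an IκBα–CBG68 fusion accumulates when IKK-driven degradation is blocked; native CBR normalizes for cell number. OCI-Ly3 cells were treated 4 h with compound and doxycycline, then green and red light read after Chroma-Glo addition.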", "key": {"[1]": {"details": "measured here: control luc red channel unless noted"}}, "note": "The other results are listed elsewhere or left out. These are further read-outs of the screen, such as a control signal, another cell line or another target. No call is given for them. The list favours compounds with an active or inconclusive main result. Words in brackets tell the shape of the fitted curve; partial curves, single points and poor fits give uncertain potencies.", "data": [{"smiles": "CCCNC(=O)N1CCN(S(=O)(=O)c2ccc3c(ccn3C)c2)CC1", "values": [{"measurement": "AC50", "setting": "[1]", "value": "2.51 µM [falling, partial curve]"}]}, {"smiles": "Cc1ccc(CNC(=O)Cn2c(=O)n(-c3cccc(Cl)c3)c(=O)c3sc4ccccc4c32)cc1", "values": [{"measurement": "AC50", "setting": "[1]", "value": "3.98 µM [falling, partial curve]"}]}, {"smiles": "CCOc1ccc(-c2cc3nc(C4CCN(C(=O)OC(C)(C)C)CC4)c(C(=O)Nc4ccc(C)cc4C)cn3n2)cc1", "values": [{"measurement": "AC50", "setting": "[1]", "value": "25.1 µM [falling, single point]"}]}, {"smiles": "Cc1ccc2c(c1)-c1c(cnn1CC(=O)Nc1ccccc1C#N)CO2", "values": [{"measurement": "AC50", "setting": "[1]", "value": "12.6 µM [falling, single point]"}]}, {"smiles": "CC(=O)N1CCCc2cc(S(=O)(=O)N3CCCC(C(=O)N4CCN(c5cc(C)ccc5C)CC4)C3)ccc21", "note": "(stereo not given)", "values": [{"measurement": "AC50", "setting": "[1]", "value": "31.6 µM [falling, single point]"}]}, {"smiles": "Cc1ccc(C(=O)COC(=O)CCC(=O)Nc2ccc(Oc3cc(C)ccc3C(C)C)cc2)cc1", "values": [{"measurement": "AC50", "setting": "[1]", "value": "39.8 µM [falling, single point]"}]}, {"smiles": "CCc1ccc(C2=NN(CCC(=O)NCCc3ccc(Cl)cc3)C(=O)CC2)cc1", "values": [{"measurement": "AC50", "setting": "[1]", "value": "31.6 µM [falling, single point]"}]}, {"smiles": "O=C(NCC(c1ccccc1)c1ccccc1)c1nn(-c2ccccc2F)nc1CO", "values": [{"measurement": "AC50", "setting": "[1]", "value": "1 µM [falling, full curve]"}]}, {"smiles": "Oc1c(CN2CCN(c3ccccn3)CC2)cc(Cl)c2cccnc12", "values": [{"measurement": "AC50", "setting": "measured here: IkB-luc green channel", "value": "6.31 µM [rising, single point]"}, {"measurement": "AC50", "setting": "measured here: control luc red channel", "value": "3.16 µM [falling, full curve, poor fit]"}]}, {"smiles": "Cc1ccc(CCNC(=O)CCSCc2ccccc2Cl)cc1", "values": [{"measurement": "AC50", "setting": "[1]", "value": "31.6 µM [falling, single point]"}]}, {"smiles": "Oc1ccccc1OCc1nc2ccccc2s1", "values": [{"measurement": "AC50", "setting": "[1]", "value": "7.94 µM [falling, full curve]"}]}, {"smiles": "CCOC(=O)Cn1nnnc1C(C(C)C)N(Cc1cc2c(C)cc(C)cc2[nH]c1=O)C1CCCC1", "note": "(stereo not given)", "values": [{"measurement": "AC50", "setting": "[1]", "value": "20 µM [falling, partial curve]"}]}, {"smiles": "Cc1cc(Br)ccc1NC(=O)C1CCN(S(=O)(=O)c2ccc(Br)s2)CC1", "values": [{"measurement": "AC50", "setting": "[1]", "value": "2.51 µM [falling, partial curve]"}]}, {"smiles": "CCOC(=O)c1ccc(N2C(=O)c3n[nH]c(-c4cccs4)c3C2c2ccc(Cl)cc2Cl)cc1", "note": "(stereo not given)", "values": [{"measurement": "AC50", "setting": "[1]", "value": "20 µM [falling, partial curve]"}]}, {"smiles": "COc1ccc(NC(=O)c2c(C)oc3ccc(O)c(CN4CCN(Cc5ccccc5)CC4)c23)cc1", "values": [{"measurement": "AC50", "setting": "[1]", "value": "12.6 µM [falling, partial curve]"}]}, {"smiles": "Cc1ccc(NC(=O)CN2C(=O)C3(SCC(=O)N3c3ccc(F)c(F)c3)c3ccccc32)c(C)c1", "note": "(stereo not given)", "values": [{"measurement": "AC50", "setting": "[1]", "value": "20 µM [falling, single point]"}]}, {"smiles": "CCOCCCNC(=O)C(c1ccc(Cl)cc1)N(Cc1cccs1)C(=O)c1ccc(NC(C)=O)cc1", "note": "(stereo not given)", "values": [{"measurement": "AC50", "setting": "[1]", "value": "10 µM [falling, partial curve]"}]}, {"smiles": "Cc1cc(=O)n(CCc2ccccc2)c(O)c1C#N", "values": [{"measurement": "AC50", "setting": "[1]", "value": "15.8 µM [falling, partial curve]"}]}, {"smiles": "Cc1ccc(-n2c(SCC(=O)NCc3ccco3)nnc2-c2cccnc2)c(C)c1", "values": [{"measurement": "AC50", "setting": "[1]", "value": "31.6 µM [falling, partial curve]"}]}, {"smiles": "CN(C)c1ccc(C(CNC(=O)c2c(F)cccc2Cl)N2CCOCC2)cc1", "note": "(stereo not given)", "values": [{"measurement": "AC50", "setting": "[1]", "value": "10 µM [falling, partial curve]"}]}, {"smiles": "CC(C)(Oc1ccc(Cl)cc1)C(=O)Nc1nc2ccc(S(C)(=O)=O)cc2s1", "values": [{"measurement": "AC50", "setting": "[1]", "value": "31.6 µM [falling, single point]"}]}, {"smiles": "COc1ccc(Cl)cc1NC(=O)NCC1CCN(Cc2ccccc2F)CC1", "values": [{"measurement": "AC50", "setting": "[1]", "value": "10 µM [falling, partial curve]"}]}, {"smiles": "COc1ccc(-n2c(=O)c3c4c(sc3n3c(SCCC(C)C)nnc23)COC(C(C)C)C4)cc1", "note": "(stereo not given)", "values": [{"measurement": "AC50", "setting": "[1]", "value": "12.6 µM [falling, partial curve]"}]}, {"smiles": "CN1C(=O)C2(SCC(=O)N2c2ccc(F)cc2)c2ccccc21", "note": "(stereo not given)", "values": [{"measurement": "AC50", "setting": "[1]", "value": "10 µM [falling, partial curve]"}]}, {"smiles": "COCCNC(=O)CSc1nc(-c2ccccc2C)nc2c1c(=O)n(C)c(=O)n2C", "values": [{"measurement": "AC50", "setting": "[1]", "value": "0.1 µM [falling, full curve, poor fit]"}]}, {"smiles": "NS(=O)(=O)c1ccc2nc(NC(=O)COc3ccccc3)sc2c1", "values": [{"measurement": "AC50", "setting": "[1]", "value": "3.16 µM [rising, full curve]"}]}, {"smiles": "Cc1ccc(NC(=O)c2nc(S(C)(=O)=O)ncc2N(Cc2ccco2)Cc2ccco2)cc1C", "values": [{"measurement": "AC50", "setting": "[1]", "value": "7.94 µM [falling, partial curve]"}]}, {"smiles": "CCOc1ccc(Nc2c(S(=O)(=O)c3ccccc3)cnc3ccccc23)cc1", "values": [{"measurement": "AC50", "setting": "[1]", "value": "15.8 µM [falling, partial curve]"}]}, {"smiles": "Cc1ccc(NC(=O)c2c(C)oc3ccc(O)c(CN4CCCCC4)c23)c(C)c1", "values": [{"measurement": "AC50", "setting": "[1]", "value": "7.94 µM [falling, partial curve]"}]}, {"smiles": "Cc1ccc(-c2nnc(Nc3ccc(S(N)(=O)=O)cc3)c3ccccc23)cc1S(=O)(=O)N1CCCCC1", "values": [{"measurement": "AC50", "setting": "[1]", "value": "15.8 µM [falling, partial curve]"}]}, {"smiles": "O=C(Nc1ccc(F)cc1F)c1cc(-c2ccco2)on1", "values": [{"measurement": "AC50", "setting": "[1]", "value": "5.01 µM [falling, full curve]"}]}, {"smiles": "Cc1ccc(C)c(Cn2c(=O)cc(C)c3c(C)nn(C)c32)c1", "values": [{"measurement": "AC50", "setting": "[1]", "value": "25.1 µM [falling, partial curve]"}]}, {"smiles": "CCn1c(C)c(C)c2cc(C(=O)NCc3cccc(C)c3)ccc21", "values": [{"measurement": "AC50", "setting": "[1]", "value": "25.1 µM [falling, single point]"}]}, {"smiles": "O=C(c1ccccc1)N(Cc1ccco1)Cc1cccs1", "values": [{"measurement": "AC50", "setting": "[1]", "value": "31.6 µM [falling, single point]"}]}, {"smiles": "COc1ccc(NC(=O)/C=C\\C(=O)N(c2ccc(C(C)C)cc2)C(C(=O)NCc2ccco2)c2ccc(F)cc2)cc1", "note": "(stereo not given)", "values": [{"measurement": "AC50", "setting": "[1]", "value": "31.6 µM [falling, partial curve]"}]}, {"smiles": "COc1ccc(OCC(=O)N2CCN(C(=O)c3cccc(OC)c3)CC2)cc1", "values": [{"measurement": "AC50", "setting": "[1]", "value": "39.8 µM [falling, single point]"}]}, {"smiles": "COc1ccccc1NC(=O)c1sc2nc(C)c(C(=O)Nc3ccc(C)cc3C)c(-c3ccc(C)o3)c2c1N", "values": [{"measurement": "AC50", "setting": "[1]", "value": "3.98 µM [falling, partial curve]"}]}, {"smiles": "Cc1ccc(-n2ncc3c(N4CCN(C)CC4)ncnc32)cc1C", "values": [{"measurement": "AC50", "setting": "[1]", "value": "20 µM [falling, single point]"}]}, {"smiles": "O=C(C1CCN(S(=O)(=O)c2cccc3cccnc23)CC1)N1CCN(c2ccc(Cl)cc2)CC1", "values": [{"measurement": "AC50", "setting": "[1]", "value": "12.6 µM [falling, partial curve]"}]}]}
